Values from PubChem BioAssay AID1224826 (NIAID, 2016).
Test: 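Knock-downs that raise or lower Tnf reporter signal after endotoxin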 (primary screen). System: RAW264.7 G9 macrophages from mouse bearing reporters for p65 (GFP) and the Tnf promoter (mCherry). Knock-down reagent: siRNA pool against mouse genes, 100 nM. Duration: 16 h of LPS stimulation, after 2 days of siRNA transfection. Conditions: bacterial lipopolysaccharide (Salmonella minnesota R595), 10 ng/ml. Detection: 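Imaged Tnf reporter mCherry in nuclei, minus background, normalised per plate to the median and expressed as robust z-scores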. Reading the numbers: Tnf reporter robust z-score: higher = stronger Tnf promoter reporter signal after LPS. Hit rule: 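a well counts as active at a score of -1.3 or below (Tlr4 knock-down control median) or above 3 (raised signal); controls and wells holding fewer than 50 cells are excluded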. Meaning of the calls: active = Tnf reporter clearly lowered or raised; inactive = no clear change in Tnf reporter.
This is an unselected part of about 17,000 deposited reagents. In the full data, about 1,110 (6.6%) got an active call. 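Active means lowered or raised reporter signal; replicate intensities are raw and not normalised per plate.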 A number with no mark means an inactive call. Further read-outs or replicates are left out here.

target gene | Tnf reporter robust z-score | fewer than 50 cells in well
Rd3 | – | fewer than 50 cells per well; well left out of calls
Map3k11 | – | fewer than 50 cells per well; well left out of calls
Echs1 | -0.46 | enough cells in well
Snrnp40 | 0.83 | enough cells in well
Rdh16f2 | -1.59 (active) | enough cells in well
Farsb | -1.31 (active) | enough cells in well
E330013P04Rik | -1.63 (active) | enough cells in well
Xbp1 | 0.05 | enough cells in well
Tspan31 | -0.1 | enough cells in well
Cfap20dc | – | fewer than 50 cells per well; well left out of calls
Or3a1 | -0.11 | enough cells in well
Zmat4 | -0.81 | enough cells in well
Laptm5 | 0.68 | enough cells in well
Ebpl | 0.38 | enough cells in well
Mageh1 | 1.29 | enough cells in well
Ranbp3l | 1.04 | enough cells in well
Or2j3 | -0.2 | enough cells in well
Cyp4a31 | -1.12 | enough cells in well
Ankar | – | fewer than 50 cells per well; well left out of calls
Ndufa7 | -1.33 (active) | enough cells in well
Lilrb4a | 0.67 | enough cells in well
Rexo1 | – | fewer than 50 cells per well; well left out of calls
4921517D22Rik | – | fewer than 50 cells per well; well left out of calls
Mlh1 | -1.04 | enough cells in well
Ranbp10 | -0.27 | enough cells in well
Psg23 | 0.27 | enough cells in well
Slc15a2 | 2.51 | enough cells in well
Fbxo21 | -1.56 (active) | enough cells in well
Or11i1 | – | fewer than 50 cells per well; well left out of calls
Tdpoz5 | 1.29 | enough cells in well
Lingo4 | -1 | enough cells in well
Uxt | 0.15 | enough cells in well
Drc10 | -1.34 (active) | enough cells in well
Bub1b | 1.75 | enough cells in well
Afg1l | 0.44 | enough cells in well
Insl3 | -0.47 | enough cells in well
Fam228b | -0.89 | enough cells in well
Tgfb1 | 0.62 | enough cells in well
C4bp | 0.67 | enough cells in well

Reagents listed above with an active call, once more:
target gene | Tnf reporter robust z-score | fewer than 50 cells in well
Rdh16f2 | -1.59 (active) | enough cells in well
Farsb | -1.31 (active) | enough cells in well
E330013P04Rik | -1.63 (active) | enough cells in well
Ndufa7 | -1.33 (active) | enough cells in well
Fbxo21 | -1.56 (active) | enough cells in well
Drc10 | -1.34 (active) | enough cells in well

The results go on.
target gene | Tnf reporter robust z-score | fewer than 50 cells in well
Pbx2 | -0.58 | enough cells in well
Setd3 | -1.03 | enough cells in well
Pltp | -0.93 | enough cells in well
Platr26 | -0.78 | enough cells in well
Glo1 | 0.41 | enough cells in well
Atf3 | – | fewer than 50 cells per well; well left out of calls
Pdk2 | -0.68 | enough cells in well
Agtr1a | -0.7 | enough cells in well
Brinp2 | 1.73 | enough cells in well
Pla2g2e | -0.14 | enough cells in well
Atp9a | -0.99 | enough cells in well
Hacd4 | 0.78 | enough cells in well
Atr | – | fewer than 50 cells per well; well left out of calls
Lpar5 | -1.32 (active) | enough cells in well
Ipo5 | -0.4 | enough cells in well
Rps25 | -0.46 | enough cells in well
Hoxb2 | 0.61 | enough cells in well
Dars2 | -0.73 | enough cells in well
Mettl22 | 0.78 | enough cells in well
Sycp2 | – | fewer than 50 cells per well; well left out of calls
Icam2 | 0.58 | enough cells in well
Ankrd42 | 0.55 | enough cells in well
Pih1d1 | 1.44 | enough cells in well
Fbxl22 | 4.24 (active) | enough cells in well
Zap70 | – | fewer than 50 cells per well; well left out of calls
Ell3 | -0.42 | enough cells in well
Vnn1 | 0.59 | enough cells in well
Mib1 | -0.22 | enough cells in well
Pepf | -0.67 | enough cells in well
Hic1 | -0.06 | enough cells in well
Polr1g | 0.28 | enough cells in well
Bbox1 | 0.11 | enough cells in well
Pxmp2 | 0.31 | enough cells in well
Cnpy2 | -0.94 | enough cells in well
Scg5 | 0.54 | enough cells in well
Oprk1 | -0.55 | enough cells in well
